In article PMC12431657, “Discovery and mechanistic insights of dibenzoylmethane as a broad spectrum inhibitor of coronavirus” (PLOS Pathogens, 2025):
Structures can show the parent of a compound that is named as a salt. Where two headings read alike, the source gives them in different places. Among all 3,300 compounds or so, about 95 (3%) showed an effect of 50% or more. Some of the results follow. Numbered stars: 1 amine (or outer) side, 2 acyl side, 3 side chain; on linkers, the order of the positions; unused ones are H or OH. Bridge positions count the residues as written; N and C are the ends. Square brackets hold non-standard residues; d marks the D form. Peptide text beside a SMILES is read from it. X2 = CC(C)CCCCCCCCC[C@H](CC(=O)[*:1])O[*:2]

System: HCoV-229E
Parameters: species or system Huh-7; HTS, protection from HCoV-229E induced cell death, luminescent cell viability (CellCounting-Lite 2.0), inhibition rate
Conditions: 24 h post infection, 1 h compound pre-incubation, 10 µM, inhibitor

Row | Structure (SMILES) | 229E Inhibition rate [%] | 229E Inhibition rate (229E Inhibition rate, 24 h) [%]
1 | Nc1ccn([C@@H]2O[C@H](CO)[C@@H](O)[C@@H]2O)c(=O)n1 [Cytarabine] | 0 | 
2 | COc1ccc(C[C@@H]2c3cc(Oc4cc(C[C@@H]5c6cc(OC)c(OC)cc6CCN5C)ccc4O)c(OC)cc3CCN2C)cc1 [Neferine] | 6.2 | 
3 | C=C(C)[C@@H](CC=C(C)C)C[C@@]12C[C@@H](CC=C(C)C)C(C)(C)[C@@](CC=C(C)C)(C(=O)C(C(=O)c3ccc(O)c(O)c3)=C1O)C2=O [Garcinol] | 3.5 | 
4 | C[N+](C)(C)[C@@H](Cc1c[nH]c(=S)[nH]1)C(=O)[O-] [Ergothioneine] | 12.7 | 
5 | CC(C)=CCc1c(O)cc(O)c2c(=O)c(-c3ccc(O)cc3)coc12 [Lupiwighteone] | 63.8 | 
6 | OCc1cn[nH]c1 [4-Hydroxymethylpyrazole] | 48.6 | 
7 | Oc1cc(O)c2c(c1)O[C@@H](c1cc(O)c(O)c(O)c1)[C@H](O)C2 [(-)-Gallocatechin] | 16.1 | 
8 | CC(/C=C/C=C(\C)C(=O)O)=C\C=C\C=C(C)\C=C\C=C(/C)C(=O)O [Transcrocetinate disodium] |  | 10.6
9 | CCCCC(CC)CCC(=O)O (stereo not drawn) [4-Ethyloctanoic acid] | 0 | 
10 | Cc1cccc(O)c1O [3-Methylcatechol] | 35.9 | 
11 | O=c1[nH]cnc2c1ncn2[C@@H]1O[C@H](CO)[C@@H](O)[C@H]1O [Inosine] | 11.8 | 
12 | COc1ccc(-c2coc3cc(O)ccc3c2=O)cc1O [Calycosin] | 13.9 | 
13 | O=C(O)C[C@@H](O)C(=O)O [D-(+)-Malic acid] | 7.2 | 
14 | NC(=O)c1ccc[n+]([O-])c1 [Nicotinamide N-oxide] | 12.1 | 
15 | CC1=C(C/C=C(\C)CCCC(C)CCCC(C)CCCC(C)C)C(=O)c2ccccc2C1=O (stereo not drawn) [Vitamin K] | 7.3 | 
16 | O=c1ccc2ccccc2o1 [Coumarin] | 17.3 | 
17 | C[N+](C)(C)[O-] [Trimethylamine N-oxide] |  | 7.5
18 | C=C[C@H]1CN2CC[C@H]1C[C@H]2[C@H](O)c1ccnc2ccc(OC)cc12 [Quinine (hydrochloride dihydrate)] |  | 0
19 | c1ccc2c(c1)[nH]c1cnccc12 [Norharmane] | 25.5 | 
20 | CCOC(=O)c1c(C)cc(O)cc1O [Ethyl Orsellinate] | 21.3 | 
21 | OC[C@H]1O[C@@H](O[C@H]2[C@H](O)[C@@H](O)[C@H](O)O[C@@H]2CO)[C@H](O)[C@@H](O)[C@H]1O [Lactose] | 22.6 | 
22 | C[C@H](O)[C@H](O)c1cnc2nc(N)[nH]c(=O)c2n1 [6-Biopterin] | 11.1 | 

Row | Structure (SMILES) | 229E Inhibition rate [%] | 229E Inhibition rate (229E Inhibition rate, 24 h) [%]
23 | CC1=CC[C@@H](C(C)(C)O)CC1 [α-Terpineol] |  | 0
24 | O=c1ccn([C@@H]2O[C@H](COP(=O)(O)OP(=O)(O)OP(=O)(O)O)[C@@H](O)[C@H]2O)c(=O)[nH]1 [Uridine triphosphate (trisodium salt)] | 12.4 | 
25 | COc1cc(O)c2c(=O)cc(-c3ccc(O)cc3)oc2c1 [Genkwanin] | 24.9 | 
26 | Oc1cc2c(cc1O)[C@@H]1c3ccc(O)c(O)c3OC[C@]1(O)C2 [Hematoxylin] | 7.3 | 
27 | COc1ccc(-c2cc(=O)c3c(OC)cc(OC)c(OC)c3o2)cc1OC [Isosinensetin] | 42 | 
28 | CC(=O)[C@H]1CC[C@H]2[C@@H]3CC=C4C[C@@H](O)CC[C@]4(C)[C@H]3CC[C@]12C [Pregnenolone] | 40.7 | 
29 | O=C(O)CNC(=O)c1ccco1 [2-Furoylglycine] | 6.8 | 
30 | O=C(O)[C@H]1O[C@@H](Oc2cc(O)c3c(=O)cc(-c4ccc(O)c(O)c4)oc3c2)[C@H](O)[C@@H](O)[C@@H]1O [Luteolin 7-O-glucuronide] | 11.2 | 
31 | O=c1ccc2ccc(O[C@@H]3O[C@H](CO)[C@@H](O)[C@H](O)[C@H]3O)c(O)c2o1 [Daphnin] | 5.9 | 
32 | CC(/C=C/C(=O)NO)=C\[C@@H](C)C(=O)c1ccc(N(C)C)cc1 [Trichostatin A] | 1.9 | 
33 | CC(=O)O[C@@H](CC=C(C)C)C1=CC(=O)c2c(O)ccc(O)c2C1=O [Acetylalkannin] | 10.1 | 
34 | CCC(C)CC(=O)O (stereo not drawn) [3-Methylvaleric Acid] | 17 | 
35 | O=C(O)[C@@H](O)CO [L-Glyceric acid (sodium)] | 18.8 | 
36 | CC1(C)[C@@H](O)CC[C@]2(C)[C@H]3C(=O)C=C4[C@H]5C[C@@](C)(C(=O)O)CC[C@]5(C)CC[C@@]4(C)[C@]3(C)CC[C@@H]12 [18α-Glycyrrhetinic acid] | 19.8 | 
37 | CC1=C(CCC(=O)O)c2cc3nc(cc4[nH]c(cc5[nH]c(cc1n2)c(C)c5CCC(=O)O)c(CCC(=O)O)c4C)C(CCC(=O)O)=C3C [Coproporphyrin III] | 9.5 | 
38 | CC(=O)c1c(O)cc(O)cc1O [Phloracetophenone] | 14.2 | 
39 | CC(C)CCC[C@@H](C)[C@H]1CC[C@H]2[C@@H]3CC[C@H]4C[C@@H](O)CC[C@]4(C)[C@H]3CC[C@]12C [5α-Cholestan-3β-ol] | 6.7 | 
40 | COc1cc(C(=O)O)cc(OC)c1OC [3,4,5-Trimethoxybenzoic acid] | 11.2 | 
41 | COc1ccc(CCNC(=O)/C=C/c2ccc(O)c(O)c2)cc1 [N-Caffeoyl O-methyltyramine] | 27.1 | 
42 | C/C=C/C=C/C(=O)O [Potassium sorbate] |  | 12.1
43 | Cc1cc(=O)oc2c(O)c(O)ccc12 [4-Methyldaphnetin] | 9.1 | 
44 | C[C@H](CCC(=O)NCCS(=O)(=O)O)[C@H]1CC[C@H]2[C@@H]3CC[C@@H]4C[C@H](O)CC[C@]4(C)[C@H]3CC[C@]12C [Taurolithocholic acid (sodium salt)] | 0 | 

Row | Structure (SMILES) | 229E Inhibition rate [%] | 229E Inhibition rate (229E Inhibition rate, 24 h) [%]
45 | CC(C)CCCCCCCCC[C@@H]1CC(=O)N[C@@H](CCC(=O)O)C(=O)N[C@@H](CC(C)C)C(=O)N[C@H](CC(C)C)C(=O)N[C@@H](C(C)C)C(=O)N[C@@H](CC(=O)O)C(=O)N[C@H](CC(C)C)C(=O)N[C@@H](CC(C)C)C(=O)O1 [Surfactin] (EL[dL]VD[dL]L; linker N-C via X2) | 0 | 
46 | CC1(C)CC[C@]2(C(=O)O)CC[C@]3(C)C(=CC[C@@H]4[C@@]5(C)C[C@@H](O)[C@H](O)[C@@](C)(CO)[C@@H]5[C@H](O)C[C@]43C)[C@@H]2C1 [Terminolic acid] | 44.5 | 
47 | O=c1cc(-c2ccc(O)cc2)oc2c([C@@H]3O[C@H](CO)[C@@H](O)[C@H](O)[C@H]3O)c(O)c([C@@H]3OC[C@@H](O)[C@H](O)[C@H]3O)c(O)c12 [Vicenin-1] | 12.3 | 
48 | CC(C)c1ccc2c(c1O)CC[C@H]1C3=C(CC[C@]21C)C(=O)OC3 [Triptophenolide] | 34 | 
49 | CC(=O)c1ccc(C)cc1 [4'-Methylacetophenone] | 8.7 | 
50 | C[C@@H](O)CC(=O)O [(R)-3-Hydroxybutanoic acid] |  | 12.3
51 | COC(=O)[C@]1(O)C[C@@H](O)[C@@H](O)[C@H](OC(=O)/C=C/c2ccc(O)c(O)c2)C1 [3-O-Caffeoylquinic acid methyl ester] | 24.2 | 
52 | Cn1c(N)nc2c(ncn2[C@@H]2O[C@H](CO)[C@@H](O)[C@H]2O)c1=O [1-Methylguanosine] | 8.6 | 
53 | N[C@H](CS)C(=O)O [D-Cysteine] | 6.6 | 
54 | Nc1nc2c(ncn2[C@@H]2O[C@H](COP(=O)(O)OP(=O)(O)OP(=O)(O)O)[C@@H](O)[C@H]2O)c(=O)[nH]1 [Guanosine 5'-triphosphate (trisodium salt)] | 12.4 | 
55 | O=C(O)c1cc(=O)[nH]c(=O)[nH]1 [Orotic acid] |  | 18.5
56 | O=C(O)Cc1cc(O)ccc1O [Homogentisic acid] | 10.7 | 
57 | N[C@@H](CS)C(=O)O [L-Cysteine (hydrochloride)] |  | 8.6
58 | C[C@]1(O)C[C@@H](O)[C@@H]2C=CO[C@@H](O[C@@H]3O[C@H](CO)[C@@H](O)[C@H](O)[C@H]3O)[C@@H]21 [Ajugol] | 0 | 
59 | OC[C@H]1O[C@@](CO)(O[C@H]2O[C@H](CO[C@@H]3O[C@H](CO)[C@@H](O)[C@H](O)[C@H]3O)[C@@H](O)[C@H](O)[C@H]2O)[C@@H](O)[C@@H]1O [Gentianose] | 0 | 
60 | C=C1C(=O)O[C@@H]2/C=C(\C)[C@@H](OC(C)=O)C/C=C(\COC(C)=O)C[C@@H](OC(=O)/C(C)=C/CO)[C@@H]12 [Eupalinolide A] |  | 35.1
61 | NCCCCCCCC(=O)O [8-Aminooctanoic acid] | 10 | 
62 | C=C[C@H]1CN2CC[C@]3(C(=O)Nc4ccccc43)[C@@H]2C[C@@H]1/C(=C\OC)C(=O)OC [Corynoxeine] | 15.2 | 
63 | O=C(/C=C/c1ccc(O)c(O)c1)O[C@@H]1[C@H](O)C[C@@](O)(C(=O)O)C[C@H]1OC(=O)/C=C/c1ccc(O)c(O)c1 [4,5-Dicaffeoylquinic acid] | 8.8 | 
64 | CC(=O)O[C@H]1C[C@H]2C(=O)O[C@H](c3ccoc3)C[C@@]2(C)[C@@H]2C[C@@H]3C[C@@H](C(=O)O3)[C@@H]12 [8-Epidiosbulbin E acetate] | 10.4 | 
65 | COc1cc(C(C)=O)ccc1O [Apocynin] | 5.3 | 
66 | COC(=O)[C@H]1[C@H]2C[C@@H]3c4[nH]c5cc(OC)ccc5c4CCN3C[C@H]2C[C@@H](OC(=O)c2cc(OC)c(OC)c(OC)c2)[C@@H]1OC [Reserpine] |  | 28

Structures shown so far containing nitrogen in an aromatic ring:
Row | Structure (SMILES) | 229E Inhibition rate [%] | 229E Inhibition rate (229E Inhibition rate, 24 h) [%]
1 | Nc1ccn([C@@H]2O[C@H](CO)[C@@H](O)[C@@H]2O)c(=O)n1 [Cytarabine] | 0 | 
4 | C[N+](C)(C)[C@@H](Cc1c[nH]c(=S)[nH]1)C(=O)[O-] [Ergothioneine] | 12.7 | 
6 | OCc1cn[nH]c1 [4-Hydroxymethylpyrazole] | 48.6 | 
11 | O=c1[nH]cnc2c1ncn2[C@@H]1O[C@H](CO)[C@@H](O)[C@H]1O [Inosine] | 11.8 | 
14 | NC(=O)c1ccc[n+]([O-])c1 [Nicotinamide N-oxide] | 12.1 | 
18 | C=C[C@H]1CN2CC[C@H]1C[C@H]2[C@H](O)c1ccnc2ccc(OC)cc12 [Quinine (hydrochloride dihydrate)] |  | 0
19 | c1ccc2c(c1)[nH]c1cnccc12 [Norharmane] | 25.5 | 
22 | C[C@H](O)[C@H](O)c1cnc2nc(N)[nH]c(=O)c2n1 [6-Biopterin] | 11.1 | 
24 | O=c1ccn([C@@H]2O[C@H](COP(=O)(O)OP(=O)(O)OP(=O)(O)O)[C@@H](O)[C@H]2O)c(=O)[nH]1 [Uridine triphosphate (trisodium salt)] | 12.4 | 
37 | CC1=C(CCC(=O)O)c2cc3nc(cc4[nH]c(cc5[nH]c(cc1n2)c(C)c5CCC(=O)O)c(CCC(=O)O)c4C)C(CCC(=O)O)=C3C [Coproporphyrin III] | 9.5 | 
52 | Cn1c(N)nc2c(ncn2[C@@H]2O[C@H](CO)[C@@H](O)[C@H]2O)c1=O [1-Methylguanosine] | 8.6 | 
54 | Nc1nc2c(ncn2[C@@H]2O[C@H](COP(=O)(O)OP(=O)(O)OP(=O)(O)O)[C@@H](O)[C@H]2O)c(=O)[nH]1 [Guanosine 5'-triphosphate (trisodium salt)] | 12.4 | 
55 | O=C(O)c1cc(=O)[nH]c(=O)[nH]1 [Orotic acid] |  | 18.5
66 | COC(=O)[C@H]1[C@H]2C[C@@H]3c4[nH]c5cc(OC)ccc5c4CCN3C[C@H]2C[C@@H](OC(=O)c2cc(OC)c(OC)c(OC)c2)[C@@H]1OC [Reserpine] |  | 28

Pulled by structure from the entries so far, 2 records:
Row | Structure (SMILES) | 229E Inhibition rate [%] | 229E Inhibition rate (229E Inhibition rate, 24 h) [%]
41 | COc1ccc(CCNC(=O)/C=C/c2ccc(O)c(O)c2)cc1 [N-Caffeoyl O-methyltyramine] | 27.1 | 
46 | CC1(C)CC[C@]2(C(=O)O)CC[C@]3(C)C(=CC[C@@H]4[C@@]5(C)C[C@@H](O)[C@H](O)[C@@](C)(CO)[C@@H]5[C@H](O)C[C@]43C)[C@@H]2C1 [Terminolic acid] | 44.5 | 
